Experimental data as given in PubChem BioAssay AID1347076 (National Center for Advancing Translational Sciences (NCATS), 2019).
The campaign covered roughly 400,000 compounds. About 13,000 (3.2%) were called active. The shares of active, inactive and inconclusive entries below differ from those in the screen. Calls follow the shape of the dose curve; as a rule, active = well fitted cell-killing curve with a large enough effect; inconclusive = small, poorly fitted or top-dose-only effect, or effect the other way; inactive = flat fitted curve, though single readings scatter. Potencies beside an inconclusive call are fits to weak or partial responses and may not hold up.

assay: qHTS assay for MDR1-selective chemotherapeutics: Primary screen using the drug-selected MDR subline cells KB-V1; details: KB-V1 MDR cells viability, CellTiter-Glo, 72 h; activity change, negative = cytotoxicity: at 46.1 µM (top of the series); also: nearly all actives have a fitted effect of over 60% in size
Outline: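 Cells of the MDR subline KB-V1 are plated, dosed with compound at multiple concentrations, and incubated 72 h at 37 degrees C; CellTiter-Glo is then added and luminescence read after 10 min.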
% is scaled to controls: 0 for no effect and ±100 for the full control effect; potency is read from the fitted curve at half-maximal effect.

| SMILES | Potency | activity change, negative = cytotoxicity |
| --- | --- | --- |
| Cn1cc(C(=O)c2ccccc2)cc1-c1nc2ccccc2n1C | inconclusive: 25.9 µM [cytotoxic, single point] | – |
| Cc1cccc(C)c1NC(=O)C(c1cccc2ccccc12)n1c(=O)c(-c2ccco2)nc2ccccc21 (configuration not stated) | inconclusive: 13 µM [cytotoxic, partial curve, poor fit] | – |
| Cc1ccc(NC(=O)c2cnn3c2NC(=C2CC2)C=C3C(F)F)cc1C | inconclusive: 23.1 µM [rising, single point] | – |
| Clc1cccc(CNCCNCc2cccc(Cl)c2)c1 | inactive | – |
| CCOC(=O)c1c(CC(C)C)csc1NC=O | active: 4.61 µM | – |
| Cc1nc2ccc(NS(=O)(=O)c3ccccc3F)cc2s1 | inactive | – |
| CC(=O)c1ccc(-c2ccc([C@H]3[C@H]4C=CC[C@@H](C)[C@@H]4C(=O)N3Cc3ccccc3)c(F)c2)cc1 | active: 20.6 µM | – |
| COc1ccc(C(=O)CSc2nnc(-c3ccccn3)n2Cc2ccco2)cc1 | active: 18.4 µM | – |
| COc1ccccc1/C=C/C(=O)NC(=S)NC(C)C | inconclusive: 29.1 µM [cytotoxic, single point] | – |
| CC1(C)Cc2nc3sc4c(N(CCO)CCO)ncnc4c3cc2CO1 | inactive | – |
| Cn1c(SCc2ccccc2)nnc1-c1ccncc1 | inconclusive: 29.1 µM [cytotoxic, partial curve, poor fit] | – |
| COc1cccc(NC(=O)CCNS(=O)(=O)c2ccc3c(c2)CCCC(=O)N3)c1 | inconclusive: 20.6 µM [rising, single point] | – |
| CC1(C)Cc2c(c(N3CCOCC3)nc3sc4c(NN)ncnc4c23)CS1 | inconclusive: 18.4 µM [cytotoxic, single point] | – |
| COc1ccc(C2=Nc3ccccc3N(C(=O)c3ccc4ncccc4c3)C2C(=O)NC2CCCC2)cc1 (configuration not stated) | inconclusive: 29.1 µM [cytotoxic, single point] | – |
| COc1ccc(C)cc1S(=O)(=O)N(CC(=O)NCc1ccc(Cl)cc1)Cc1ccccc1 | inconclusive: 8.2 µM [cytotoxic, partial curve, poor fit] | – |
| O=C(NCc1cccnc1)c1ccc(S(=O)(=O)N2CCCCC2)cc1 | inactive | – |
| Cc1c(C(=O)NCc2cccc([N+](=O)[O-])c2)sc(=O)n1Cc1ccc(F)cc1 | inconclusive: 16.4 µM [cytotoxic, partial curve] | – |
| CC(=O)Oc1ccc(/C(C)=N\N2CCN(Cc3ccc(Cl)cc3)CC2)cc1 | inactive | – |
| CCn1nc(C(=O)NNC(=O)c2ccc(OC(F)F)cc2)c2ccccc2c1=O | active: 16.4 µM | – |
| CCOC(=O)CSc1[nH]c2cc(OC)ccc2c1[N+](=O)[O-] | inactive | – |
| COc1cc2[nH]c(C)c(-c3ccccc3)c(=O)c2cc1Cl | inactive | – |
| COc1ccc(C(C(=O)NC(C)(C)C)N(Cc2ccco2)C(=O)CCC(=O)Nc2ccccn2)cc1 (configuration not stated) | – | inconclusive: -35% |
| Cc1cccc(C(=O)Nc2ccc(S(=O)(=O)N3CCOCC3)cc2C)c1 | inactive | – |
| COc1ccc2c(c1)C1(Nc3ccccc3-c3nc4ccccc4n31)C(=O)N2C (configuration not stated) | inactive | – |

| SMILES | Potency | activity change, negative = cytotoxicity |
| --- | --- | --- |
| Cc1ccc(C(C)C)c(OCC(O)CN2CC(C)OC(C)C2)c1 (configuration not stated) | inconclusive: 11.2 µM [cytotoxic, partial curve, poor fit] | – |
| Cc1onc(-c2ccccc2)c1C(=O)N/N=C/c1ccc(Br)cc1 | inactive | – |
| CC(C)CNS(=O)(=O)c1cc(C(=O)N2CCOCC2)c(Cl)cc1Cl | inconclusive: 20.6 µM [cytotoxic, partial curve] | – |
| CCOC(=O)c1ccc(NS(=O)(=O)c2cc3c(cc2C)n(C)c(=O)c(=O)n3C)cc1 | inconclusive: 16.4 µM [rising, partial curve] | – |
| COc1cccc(/C=C(\C#N)c2nc3ccc(C)cc3[nH]2)c1 | inconclusive: 18.4 µM [cytotoxic, single point] | – |
| COc1cccc(S(=O)(=O)NCc2ccc(C(=O)Nc3ccc(Cl)cc3)cc2)c1 | inconclusive: 5.8 µM [cytotoxic, partial curve] | – |
| COc1cc(OC)cc(C(=O)NCc2ccc3c(c2)cc(C)n3C)c1 | inconclusive: 29.1 µM [cytotoxic, single point] | – |
| Cc1ccc(S(=O)(=O)C[C@@H]2OC[C@H](C)N2S(=O)(=O)c2ccc(C)cc2)cc1 | inconclusive: 9.2 µM [cytotoxic, partial curve] | – |
| Cc1cc2ccccc2c[n+]1C1CCCCC1 | inactive | – |
| COc1cc2c(ccc3cc(OC)c(OC)c(O)c32)cc1O | inconclusive: 29.1 µM [cytotoxic, single point] | – |
| CCCCSCCCNC(=O)CN1C(=O)COc2ccc(S(=O)(=O)N3CCCC3)cc21 | inactive | – |
| CN(CC(=O)NCCc1ccc(F)cc1)Cc1ccc(Br)cc1 | inconclusive: 32.6 µM [cytotoxic, partial curve, poor fit] | – |
| COc1ccc(CNc2nc(-c3ccc(OC)c(OC)c3)cc(C(F)(F)F)n2)cc1 | inconclusive: 23.1 µM [cytotoxic, single point] | – |
| O=C(NCCN1C(=O)S/C(=C\c2cccc(Cl)c2Cl)C1=O)C1=COCCO1 | active: 14.6 µM | – |
| Cc1ccc(S(=O)(=O)Cc2ccc(C(=O)N3CCN(c4cc(C)ccc4C)CC3)o2)cc1 | active: 18.4 µM | – |
| O=C(Cn1c(=O)n(-c2ccccc2)c(=O)c2ccc(C(=O)NCc3ccc4c(c3)OCO4)cc21)Nc1ccc(Br)cc1F | inactive | – |
| CCC1(C)Cc2c(sc3nnn(CC(=O)Nc4ccccc4)c(=O)c23)CO1 (configuration not stated) | active: 7.31 µM | – |
| N#Cc1ncc(-c2ccc3c(c2)OCCOCCOCCOCCOCCO3)nc1C#N | inactive | – |
| c1ccc(CSc2ccc(-c3cccs3)nn2)nc1 | inconclusive: 14.6 µM [cytotoxic, partial curve] | – |
| NCCCCCCNS(=O)(=O)c1cccc2c(Cl)cccc12 | inconclusive: 16.4 µM [cytotoxic, single point] | – |
| O=C(c1cccc(F)c1)N1CCC(N2CCOCC2)CC1 | inactive | – |
| COc1ccccc1-c1nnc(NC(=O)c2ccc3c(c2)OCO3)s1 | active: 6.51 µM | – |
| c1ccc(N/N=C(\Cc2ncc[nH]2)c2ccccc2)cc1 | inconclusive: 20.6 µM [cytotoxic, single point] | – |
| COc1ccc(C)cc1NC(=O)C(CCSC)NS(=O)(=O)c1ccc2c(c1)oc(=O)n2C (configuration not stated) | inconclusive: 4.61 µM [cytotoxic, full curve, poor fit] | – |

In the list so far, 2 have a cyano group.

| SMILES | Potency | activity change, negative = cytotoxicity |
| --- | --- | --- |
| COc1cccc(/C=C(\C#N)c2nc3ccc(C)cc3[nH]2)c1 | inconclusive: 18.4 µM [cytotoxic, single point] | – |
| N#Cc1ncc(-c2ccc3c(c2)OCCOCCOCCOCCOCCO3)nc1C#N | inactive | – |

Later entries:

| SMILES | Potency | activity change, negative = cytotoxicity |
| --- | --- | --- |
| Cc1ccc2oc(C(=O)Nc3c(C(=O)c4ccc(C)c(F)c4)oc4ccccc34)cc(=O)c2c1 | inactive | – |
| O=C(CCSc1ccccc1)N1CCN(C(=O)c2ccco2)CC1 | inconclusive: 20.6 µM [cytotoxic, single point] | – |
| CC(Oc1ccc2c3c(c(=O)oc2c1)CCCC3)C(=O)NCC(O)c1ccccc1 (configuration not stated) | inconclusive: 3.26 µM [rising, partial curve, poor fit] | – |
| COc1ccc(CN(C(=O)Nc2ccccc2)c2ccccn2)cc1OC | inactive | – |
| Fc1ccc(-c2cc(C(F)(F)C(F)F)[nH]n2)cc1 | inconclusive: 18.4 µM [cytotoxic, single point] | – |
| COc1cc2c(cc1OC)C(C)N(C(=O)c1cc3c(s1)-c1c(C)cccc1OC3)CC2 (configuration not stated) | inactive | – |
| CCN1CCN(CCCN(Cc2ccco2)C(=S)Nc2ccccc2Cl)CC1 | inconclusive: 14.6 µM [cytotoxic, partial curve] | – |
| Cc1cc(NC(=O)COC(=O)COc2ccc(C(=O)c3ccccc3)cc2)no1 | inactive | – |
| COC(=O)c1nc(N)sc1-c1ccc(Cl)cc1 | inconclusive: 14.6 µM [cytotoxic, single point] | – |
| CC(C)(C)NC(=O)NC(=O)COC(=O)CNS(=O)(=O)/C=C/c1ccccc1 | inconclusive: 23.1 µM [rising, single point] | – |
| O=C(N/N=C/c1sc2ccccc2c1O)c1ccccc1 | inconclusive: 1.84 µM [cytotoxic, full curve] | – |
| COc1c(C)cc(Br)cc1C(=O)Nc1ccc(C)cc1[N+](=O)[O-] | inactive | – |
| CCOC(=O)c1cc(-c2ccccc2)nn1CCC#N | inactive | – |
| C=CCSc1nc(Cc2ccc(Cl)cc2)nc2ccccc12 | active: 16.4 µM | – |
| CCN1CC=C2C(C#N)=C(N)C(C#N)(C#N)C(CCc3ccccc3)C2C1 (configuration not stated) | inconclusive: 11.6 µM [cytotoxic, partial curve, poor fit] | – |
| COc1ccccc1CN1CCC(CNS(=O)(=O)c2cc(-c3cc(C)no3)ccc2C)CC1 | inactive | – |
| CSc1ccc(CCNS(=O)(=O)c2csc(C(N)=O)c2)cc1 | inactive | – |
| Brc1ccccc1-c1nnc(COc2ncnc3c2cnn3-c2ccccc2)o1 | inconclusive: 20.6 µM [cytotoxic, single point] | – |
| CCOP(=O)(c1ccccc1)c1nc(-c2ccccc2C)oc1NCc1ccccc1 (configuration not stated) | inconclusive: 6.51 µM [cytotoxic, partial curve] | – |
| CCN(CC)C(=O)C(Sc1ccccc1)c1ccccc1 (configuration not stated) | inconclusive: 32.6 µM [cytotoxic, single point] | – |
| CCOc1ccc(-n2c(O)c(/C=N/Nc3nc(C)cc(C)n3)c3ccccc3c2=O)cc1 | inconclusive: 5.17 µM [cytotoxic, full curve] | – |
| O=C1C=C(c2ccccc2)OC(c2ccccc2)O1 (configuration not stated) | inconclusive: 32.6 µM [rising, single point] | – |
| CCOC(=O)c1c(NC(=O)CSc2nnc3c(Cl)cc(Cl)cn23)sc2c1CCC2 | inconclusive: 5.17 µM [cytotoxic, full curve, poor fit] | – |
| O=C(NCc1ccccc1)C1(CC2CC(c3ccccc3)=NO2)CCNCC1 (configuration not stated) | inconclusive: 29.1 µM [rising, single point] | – |
